# The supplement of paper PMC8104966
# This is one part of the list. This data set is noisy: repeats of one test often differ as much as different tests do.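 U2OS cells carrying ACE2 were mixed with U2OS cells carrying full-length spike, and fusion was scored by imaging as the share of nuclei showing both cell types' fluorescent markers. A compound counts as an inhibitory hit when it is non-toxic and its fusion z-score falls below -3, meaning more than three standard deviations below the plate's DMSO wells.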
# Tested on: U2OS ACE2 x SARS-CoV-2 spike co-culture
# Assay: cell-cell fusion (fraction fused) z-score vs plate DMSO control; higher = more fusion
# Details: 30 µM; 5 h; toxicity class: non-toxic, passed QC
row,Structure (SMILES),cell-cell fusion (z-score)
1,COc1cc2c(cc1OC)[C@@H]1C(=O)c3ccc4c(c3O[C@@H]1CO2)C=CC(C)(C)O4,inactive: 2.73
2,CC1(CN2CCC(n3c(=O)[nH]c4ccccc43)CC2)OCc2ccccc2-n2cccc21.O=C(O)/C=C\C(=O)O (centres undefined),inactive: -1.35
3,O=c1cc[nH]c(=O)[nH]1,inactive: 0.509
4,N=C(N)Nc1ccc2[nH]c3c(c2c1)C[C@@]1(O)[C@H]2Cc4ccc(O)c5c4[C@@]1(CCN2CC1CC1)[C@H]3O5.O=C(O)C(F)(F)F.O=C(O)C(F)(F)F [Guanidinyl-naltrindole di-trifluoroacetate],inactive: 0.269
5,CC(=O)O.N=C(N)NCCC[C@@H](NC(=O)[C@@H](N)Cc1ccc(O)cc1)C(=O)O,inactive: 2.35
6,Cl.NC12CC3CC(CC(C3)C1)C2 [Amantadine hydrochloride],inactive: 2.17
7,Cl.NC12CC3CC(CC(C3)C1)C2,inactive: 1.93
8,NC1(C(=O)O)CCCC1,inactive: 3.59
9,CN1CCN(c2c(F)cc3c(=O)c(C(=O)O)cn4c3c2SCC4)CC1,inactive: 3.12
10,CCNC1(c2cccs2)CCCCC1=O.Cl (centres undefined),inactive: 2.07
11,Clc1ccc(CO/N=C(\Cn2ccnc2)c2ccc(Cl)cc2Cl)c(Cl)c1.O=[N+]([O-])O,inactive: 1.09
12,C[C@H]1O[C@H](O[C@H]2[C@H](O)[C@@H](O)[C@@H](O)[C@H](O)[C@@H]2O)[C@@H](N)C[C@@H]1NC(=N)C(=O)O.Cl,inactive: 1.62
13,CN1C(=O)OC(C)(C)C1=O,inactive: 1.43
14,CCC(=O)OCC(=O)[C@@]1(OC(=O)CC)[C@@H](C)C[C@H]2[C@@H]3CCC4=CC(=O)C=C[C@]4(C)[C@@]3(F)[C@@H](O)C[C@@]21C [Betamethasone dipropionate],inactive: 3.33
15,CC[C@@]1(O)C(=O)OCc2c1cc1n(c2=O)Cc2cc3c(CN(C)C)c(O)ccc3nc2-1.Cl [Topotecan HCl],inactive: 1.57
16,Cl.O=S(=O)(c1cccc2c(I)cccc12)N1CCCNCC1,inactive: -0.446
17,NCCCS(=O)(=O)O,inactive: 0.908
18,COc1ccc2c(Oc3ccc(NC(=O)c4c(C)n(CC(C)(C)O)n(-c5ccccc5)c4=O)nc3)ccnc2c1,inactive: 0.772
19,COc1ccc2[nH]cc(CCN)c2c1.Cl [O-Methylserotonin hydrochloride],inactive: 1.91
20,CN(C)C(=O)C(CCN1CCC(O)(c2ccc(Cl)cc2)CC1)(c1ccccc1)c1ccccc1.Cl [Loperamide hydrochloride],inactive: 1.82
21,CN(C)C(=O)C(CCN1CCC(O)(c2ccc(Cl)cc2)CC1)(c1ccccc1)c1ccccc1.Cl,inactive: 1.07
22,Cc1ncc(CO)c(CO)c1O.Cl [Pyridoxine hydrochloride],inactive: 0.0577

row,Structure (SMILES),cell-cell fusion (z-score)
1,O=C1C=CC(=C(c2ccc(O)cc2)c2ccc(O)cc2)C=C1,inactive: 3.22
2,CC(C)C[C@H](NC(=O)CNC(=O)c1cc(Cl)ccc1Cl)B(O)O,inactive: 1.62
3,C[C@](N)(Cc1ccc(O)cc1)C(=O)O [alpha-METHYL-L-TYROSINE],inactive: 2.22
4,C[C@](N)(Cc1ccc(O)cc1)C(=O)O [L-alpha-Methyl-p-tyrosine],inactive: 2.47
5,CC1=C(C(=O)O)N2C(=O)[C@@H](NC(=O)[C@H](N)c3ccc(O)cc3)[C@H]2SC1 [Cefadroxil],inactive: 1.04
6,Nc1nc(Nc2ccc(S(N)(=O)=O)cc2)nn1C(=O)c1c(F)cccc1F,inactive: 2.85
7,O=c1c(-c2ccc(O)cc2)coc2c(C3O[C@H](CO)[C@@H](O)[C@H](O)[C@H]3O)c(O)ccc12 (some centres undefined),inactive: 3.08
8,O=C(O)C1CN(CCCP(=O)(O)O)CCN1 (racemic),inactive: 2.82
9,CC(C)C[C@H](N)C(=O)N[C@@H](C)C(=O)O,inactive: 2.63
10,CCCCc1nc(Cl)c(CO)n1Cc1ccc(-c2ccccc2-c2nnn[n-]2)cc1.[K+] [Losartan potassium],inactive: 3.21
11,NC(=O)c1ncn([C@@H]2O[C@H](CO)[C@@H](O)[C@H]2O)n1 [Ribavirin],inactive: -0.721
12,C=C1C[C@]23C[C@@]1(O)CC[C@H]2[C@@]12C=C[C@H](O)[C@](C)(C(=O)O1)[C@H]2[C@@H]3C(=O)O,inactive: 1.44
13,CN(C/C=C/C#CC(C)(C)C)Cc1cccc2ccccc12 [Terbinafine],inactive: 3.04
14,C=CCc1cccc(/C=N/NC(=O)CN2CCN(Cc3ccccc3)CC2)c1O,inactive: 1.44
15,COc1cccc2c1[C@@H]1CN(CCCCn3c(=O)[nH]c4c(sc5ncc(-c6ccccc6)nc54)c3=O)C[C@@H]1CO2.Cl [Fiduxosin hydrochloride],inactive: -1.86
16,CCCC(CCC)C(=O)O [Valproic Acid],inactive: 3.09
17,CC[C@H]1OC(=O)[C@H](C)[C@@H](O[C@H]2C[C@@](C)(OC)[C@@H](O)[C@H](C)O2)[C@H](C)[C@@H](O[C@@H]2O[C@H](C)C[C@H](N(C)C)[C@H]2O)[C@](C)(O)C[C@@H](C)CN[C@H](C)[C@@H](O)[C@]1(C)O [Azathramycin],inactive: 1.99
18,NNC(=O)c1ccc(O)cc1 [4-Hydroxybenzhydrazide],inactive: 2.72
19,COc1ccc(-c2cc(=O)c3c(O)cc(O[C@@H]4O[C@H](CO[C@@H]5O[C@@H](C)[C@H](O)[C@@H](O)[C@H]5O)[C@@H](O)[C@H](O)[C@H]4O)cc3o2)cc1O,inactive: 2.04
20,CCN(CC)C(=O)C1(c2ccccc2)CC1CN.Cl (centres undefined),inactive: 2.11
21,NC(C(=O)N[C@@H]1C(=O)N2C(C(=O)O)=C(Cl)CS[C@H]12)c1ccccc1 (some centres undefined) [Cefaclor],inactive: 2.77
22,O=[N+]([O-])c1cn2c(n1)OC[C@@H](OCc1ccc(OC(F)(F)F)cc1)C2 [Pretomanid],inactive: 0.52

# 2 entries from above, with tabs:
row	Structure (SMILES)	cell-cell fusion (z-score)
3	C[C@](N)(Cc1ccc(O)cc1)C(=O)O [alpha-METHYL-L-TYROSINE]	inactive: 2.22
4	C[C@](N)(Cc1ccc(O)cc1)C(=O)O [L-alpha-Methyl-p-tyrosine]	inactive: 2.47
